## Results of single-concentration screens

Chains of the proteins cited; added tags and fusions are not shown. Residues count along the entry.
UniProt A4I591, 1-473: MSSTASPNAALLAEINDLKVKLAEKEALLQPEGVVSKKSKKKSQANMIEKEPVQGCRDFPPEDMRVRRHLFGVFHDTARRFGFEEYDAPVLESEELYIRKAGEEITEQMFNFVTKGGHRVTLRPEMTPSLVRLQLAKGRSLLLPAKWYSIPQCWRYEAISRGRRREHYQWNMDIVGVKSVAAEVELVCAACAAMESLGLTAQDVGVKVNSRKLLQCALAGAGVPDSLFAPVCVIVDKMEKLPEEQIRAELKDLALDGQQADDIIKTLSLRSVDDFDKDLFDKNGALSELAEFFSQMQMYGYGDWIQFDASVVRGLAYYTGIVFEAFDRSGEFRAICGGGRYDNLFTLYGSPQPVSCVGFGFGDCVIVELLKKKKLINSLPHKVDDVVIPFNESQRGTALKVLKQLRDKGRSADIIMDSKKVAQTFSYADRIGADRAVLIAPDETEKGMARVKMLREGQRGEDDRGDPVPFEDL
UniProt I6X8D2, whole entry: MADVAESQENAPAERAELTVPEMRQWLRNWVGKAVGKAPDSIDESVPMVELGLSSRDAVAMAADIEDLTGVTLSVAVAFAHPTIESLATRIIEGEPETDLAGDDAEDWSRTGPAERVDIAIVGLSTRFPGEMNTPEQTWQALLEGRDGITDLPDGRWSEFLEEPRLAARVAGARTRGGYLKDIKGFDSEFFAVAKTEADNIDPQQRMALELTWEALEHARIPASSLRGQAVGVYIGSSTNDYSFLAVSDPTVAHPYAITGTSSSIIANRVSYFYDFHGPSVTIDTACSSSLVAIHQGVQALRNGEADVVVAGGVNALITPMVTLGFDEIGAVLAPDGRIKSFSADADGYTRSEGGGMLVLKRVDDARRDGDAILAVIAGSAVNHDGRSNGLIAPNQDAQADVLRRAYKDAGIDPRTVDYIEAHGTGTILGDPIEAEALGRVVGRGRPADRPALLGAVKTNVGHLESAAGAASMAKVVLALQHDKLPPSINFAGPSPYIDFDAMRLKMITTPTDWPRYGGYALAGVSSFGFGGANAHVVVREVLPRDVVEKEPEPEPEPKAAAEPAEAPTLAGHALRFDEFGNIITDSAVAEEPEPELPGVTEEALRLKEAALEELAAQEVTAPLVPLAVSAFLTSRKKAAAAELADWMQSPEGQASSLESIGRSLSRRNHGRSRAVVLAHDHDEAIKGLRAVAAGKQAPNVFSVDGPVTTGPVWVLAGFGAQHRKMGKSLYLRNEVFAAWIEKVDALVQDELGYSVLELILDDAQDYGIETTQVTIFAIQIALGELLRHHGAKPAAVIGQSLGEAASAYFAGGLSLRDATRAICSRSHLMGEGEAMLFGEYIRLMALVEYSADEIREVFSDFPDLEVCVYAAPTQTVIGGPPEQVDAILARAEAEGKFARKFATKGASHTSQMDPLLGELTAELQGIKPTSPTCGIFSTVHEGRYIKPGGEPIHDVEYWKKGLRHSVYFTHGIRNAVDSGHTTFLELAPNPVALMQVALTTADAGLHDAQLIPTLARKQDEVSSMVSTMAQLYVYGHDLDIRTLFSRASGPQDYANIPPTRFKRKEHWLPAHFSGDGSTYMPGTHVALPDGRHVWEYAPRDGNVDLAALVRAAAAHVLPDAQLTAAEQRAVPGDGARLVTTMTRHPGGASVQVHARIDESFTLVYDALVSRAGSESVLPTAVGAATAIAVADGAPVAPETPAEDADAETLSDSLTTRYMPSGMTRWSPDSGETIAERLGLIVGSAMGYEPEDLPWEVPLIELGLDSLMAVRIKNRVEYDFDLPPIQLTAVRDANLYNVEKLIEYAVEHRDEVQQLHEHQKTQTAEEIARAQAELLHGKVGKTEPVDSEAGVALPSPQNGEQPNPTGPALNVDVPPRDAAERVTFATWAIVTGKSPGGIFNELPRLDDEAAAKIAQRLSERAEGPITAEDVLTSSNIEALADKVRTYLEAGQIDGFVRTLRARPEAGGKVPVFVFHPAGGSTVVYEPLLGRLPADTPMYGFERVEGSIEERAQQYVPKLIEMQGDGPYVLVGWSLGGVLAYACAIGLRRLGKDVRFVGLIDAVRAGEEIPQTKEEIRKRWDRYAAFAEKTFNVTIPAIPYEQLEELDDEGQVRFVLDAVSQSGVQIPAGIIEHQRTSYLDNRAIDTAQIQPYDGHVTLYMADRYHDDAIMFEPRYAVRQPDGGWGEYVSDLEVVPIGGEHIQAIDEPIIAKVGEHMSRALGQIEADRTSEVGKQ

The values are deposited in ChEMBL (CHEMBL3988442, “University of Dundee, Small-Polar-MMV Screening Library” (2021)).

A: 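Histidine-tRNA ligase, Leishmania infantum (UniProt A4I591). Enzyme assay of histidyl-tRNA synthetase; the read-out is not stated. Concentration: 30 µM. Higher reads as stronger inhibition (inferred: compounds with an IC50 in retests scored well above the rest). The assay is labelled LdHisRS but filed under L. infantum. Of about 69,000 compounds tested this way, about 410 (0.6%) reached 50% or more in at least one test.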
B: 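Enzyme assay of the thioesterase domain of polyketide synthase 13; the read-out is not stated. Target: Polyketide synthase Pks13, Mycobacterium tuberculosis (UniProt I6X8D2). Compounds at 30 µM. The record gives no direction; the compounds picked for IC50 retests had high values, so higher reads as stronger inhibition. Of about 67,000 compounds tested this way, about 300 (0.46%) reached 50% or more in at least one test.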
C: 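Cell assay of Leishmania donovani living inside macrophages; the read-out is not stated. Compounds at 30 µM. Direction is inferred from retests: higher values go with stronger inhibition. Of about 69,000 compounds tested this way, about 1,000 (1.5%) reached 50% or more in at least one test.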

Each number is a percent effect as filed.
The record does not define 0% and 100%; most values in the screen are far below 50% and negative numbers occur (in some assays of this library far below -100).
The compounds are a random part of those screened.
Two or more numbers in one place are separate tests of the same structure; such repeats can differ widely.

COc1ccc(-c2cc(N)on2)cc1 gave A: 0%; B: -23.43%; C: 6.803%. Result for O=C(O)C(F)(F)F.O=C(O)C(F)(F)F.c1csc(CN2CCC3(COCCN(CC4CC4)C3)C2)n1 (stereo not drawn) was C: 15.67% and 9.027%. With COc1ncccc1C(=O)N1CC[C@H]2C[C@H](c3ccncn3)O[C@@H]2C1 the screen gave A: 15.38%; B: 13.55%. CNC(=O)[C@@H]1COC[C@H]2CN(C(=O)c3ccc(C)c(F)c3)C[C@H]21 gave A: 12.28%; B: -39.84%. Result for CCn1ncc2c1CCCC2NCc1cccc2c1OCCCO2 (stereo not drawn) was A: 0.8696%; B: -21.42%; C: 33.94%. CC(C)Oc1cccc(C(=O)C2CCCN(C(=O)c3ccnn3C)C2)c1 (stereo not drawn) gave A: 5.66%; B: -13.36%; C: -61.65%.

With Nc1nnc(C2CC(=O)N(c3ccccc3)C2)s1 (stereo not drawn) the screen gave A: 13.58%; B: -4.856%; C: 8.548%. Result for c1cnnc(N2CCCC2CNc2cnc3ccccc3n2)c1 (stereo not drawn) was A: 11.3%; B: -110.3%; C: 16.06%. For O=C1CC(N(C(=O)c2ccc(-n3cccc3)cc2)C2CC2)C(=O)N1 (stereo not drawn) the result was A: 16.88%; B: 24.48%; C: -5.184%. For CC1COCCN1Cc1nc(C(C)(C)C)no1 (stereo not drawn) the result was A: 9.524%; B: -4.659%; C: 35.79%. For O=C(c1ccoc1)N1CC[C@@H]2O[C@@H](COCCN3CCCC3)CC[C@@H]21 the result was A: 17.43%; B: -6.593%. COc1ccc(Oc2nccc3occc23)cc1CN1CCCC1 read A: 58.06%; B: -34.57%; C: 2.988%.

CC(C)c1nn(C)c(N(C)C)c1CNCc1ccnc(N(C)C)c1 read A: 4.145%; B: -42.98%; C: 10.79%. CCOc1ccc2[nH]c(=O)c(CN(C)CCc3cn[nH]c3)cc2c1 read A: 17.09%; B: -28.9%; C: -13.53%. Result for Cc1ccsc1CN1CCC(c2cc(C(C)C)n[nH]2)CC1 was A: 14.29%; B: -26.05%; C: 28.29%. For CCC(=O)N1CCC(c2nc(O)c3c(n2)CN(C2CCCCC2)CC3)C1 (stereo not drawn) the result was A: 19.79%; B: 10.92%; C: 15.16%. For Cc1cc(C(=O)N2CCC(n3cc(CO)nn3)CC2)ccc1F the result was A: 4.225%; B: -6.021%; C: 0.01687%. CC(C)(CO)CNC(=O)c1ccnn1-c1ccc2ccccn12 gave A: 17.24%; B: -4.837%; C: 8.674%.

CCC(C(=O)NCc1ccncc1)N(c1ccc(F)cc1)S(C)(=O)=O (stereo not drawn) gave A: 3.125%; B: -14.21%; C: 26.76%. O=C(O)C(F)(F)F.O=C(O)C(F)(F)F.c1cc(CNCC2OCCc3cn(CC4CC4)nc32)cs1 (stereo not drawn) read C: 8.935% and 11.7%. With O=C(CCNS(=O)(=O)c1ccccc1F)NCc1ccoc1 the screen gave A: -4.464%; B: -4.928%; C: -12.3%. Result for Cc1cnn(CC2CCN(CC(O)COc3ccccc3)CC2)c1 (stereo not drawn) was A: 11.84%; B: 8.205%; C: 1.771%. With CCNC(=O)N1CCC(Cc2cccc(C(N)=O)c2)C1 (stereo not drawn) the screen gave A: -0.8%; B: 5.987%; C: 1.927%. For Cc1nc(CN2CCCC2c2nc(C(C)C)no2)cs1 (stereo not drawn) the result was A: 20.19%; B: 8.613%; C: 18.45%.

Result for Cc1cc2cc(CNC(=O)c3cnn4c3OCCC4)ccc2[nH]1 was A: 12.17%; B: -31.82%; C: 1.176% and 2.875%. With O=C(c1cccnc1)N1CCc2onc(CN3CCCC3)c2C1 the screen gave A: 7.692%; B: -36.9%; C: 14.82%. CN(Cc1cscn1)Cc1cc2c(cc1Br)OCO2 read A: 13.95%; B: 10.27%; C: 16.99%. Result for CCn1nccc1CNc1[nH]cnc2nc(C)nc1-2 was A: 11.9%; B: -1.15%; C: -7.707%. With Cc1cc(Br)c2c(c1)C1(CC(=O)Nc3c1cnn3C(C)C)C(=O)N2 (stereo not drawn) the screen gave A: 26.32%; B: -19.16%; C: -8.404%. NC(=O)CN1CCC(C(=O)NCc2ccc3c(c2)OCCCO3)CC1 gave A: 13.33%; B: -23.67%; C: 28.3%.

The last 3 entries again:

compound,A,B,C
CCn1nccc1CNc1[nH]cnc2nc(C)nc1-2,11.9,-1.15,-7.707
Cc1cc(Br)c2c(c1)C1(CC(=O)Nc3c1cnn3C(C)C)C(=O)N2 (stereo not drawn),26.32,-19.16,-8.404
NC(=O)CN1CCC(C(=O)NCc2ccc3c(c2)OCCCO3)CC1,13.33,-23.67,28.3